Measurements published in PubChem BioAssay AID540276 (National Center for Advancing Translational Sciences (NCATS), 2011).
Screen size: about 300,000 compounds; about 5,400 (1.8%) were called active. The shares of active, inactive and inconclusive entries below differ from those in the screen. Calls follow the shape of the full dose curve; tested in HEK293 cells. A potency beside an inconclusive call is a rough fit, not a confirmed value.

Assay: qHTS for inhibitors of binding or entry into cells for Marburg Virus
Conditions: Marburg virus pseudotyped entry inhibition, cell reporter; activity change, negative = inhibition: at 37.8 µM (top of the series) unless noted
% is scaled to controls: 0 for no effect and ±100 for the full control effect; potency is read from the fitted curve at half-maximal effect.

| SMILES | activity change, negative = inhibition | Potency |
| --- | --- | --- |
| O=C(Nc1ccc2c(c1)OCCO2)C1CCN(C(=O)c2ccccc2)CC1 | inactive: 0.761% |  |
| COC(=O)c1ccccc1NC(=O)C1CCN(S(=O)(=O)c2cc(C)ccc2OC)CC1 |  | inconclusive: 31.6 µM [inhibitor, single point] |
| CC1(C)Cc2c(sc3nc(N/N=C/c4ccccc4)[nH]c(=O)c23)CO1 |  | inconclusive: 0.366 µM [activator, partial curve, poor fit] |
| C(=C1c2ccccc2-c2ccccc21)c1ccncc1 |  | inconclusive: 35.5 µM [inhibitor, single point] |
| Nc1cc(-c2ccc(Br)cc2)nn1Cc1ccccc1 | inactive: -23.5% [at 46.1 µM] |  |
| O=c1c(Cl)c2oc3ccccc3nc-2c2ccccc12 |  | inconclusive: 12.6 µM [activator, partial curve, poor fit] |
| O=C(NCc1ccoc1)c1ccc(NC(=O)c2ccccc2Cl)cc1 | inactive: 3.84% |  |
| Cc1ccc(S(=O)(=O)N2CCN(Cc3csc(C)n3)CC2)cc1 |  | inconclusive: 35.5 µM [inhibitor, single point] |
| CCn1c(C)[n+](Cc2ccccc2)c2ccc(C(=O)OC)cc21 | inactive: 3.12% [at 46.1 µM] |  |
| COc1ccccc1OCC(=O)Nc1cccc(-c2nnc(-c3ccco3)o2)c1 |  | active: 6.31 µM |
| CN(CC(=O)NC1CCCCCCC1)S(=O)(=O)c1cnc[nH]1 |  | inconclusive: 10 µM [activator, partial curve, poor fit] |
| CC(O)CNCCCOc1ccccc1OCc1ccccc1 (stereo not drawn) |  | inconclusive: 35.5 µM [inhibitor, single point] |
| O=C(Nc1ccccc1C(=O)O)c1ccc(Br)o1 | inactive: 22.2% |  |
| COc1ccc(C2c3[nH]c4ccccc4c3CCN2C(=O)c2cc3ncccn3n2)c(F)c1 (stereo not drawn) |  | inconclusive: 35.5 µM [inhibitor, single point] |
| S=C(Nc1cc(Cl)ccc1Oc1ccccc1)N1CCN(c2ccccn2)CC1 |  | inconclusive: 4.47 µM [inhibitor, partial curve, poor fit] |
| CCC(C)(C)NC(=O)CN(C(=O)CCC(=O)Nc1nccs1)c1ccccc1C | inactive: 4.47% |  |
| CCSc1nnc(NC(=O)c2cc(C)on2)s1 | inactive: 20.5% |  |
| Cc1nc(=O)c(-c2ccccc2)c(C)n1CCO |  | inconclusive: 2.91 µM [inhibitor, partial curve, poor fit] |
| CCOc1ccc2nc3sc(C(=O)N4CCOCC4)c(N)c3cc2c1 |  | inconclusive: 15.8 µM [inhibitor, single point] |
| COc1ccc(-c2nn(-c3ccccc3)cc2/C=C2/SC(=S)N(CCCC(=O)O)C2=O)c(C)c1 |  | inconclusive: 11.2 µM [inhibitor, partial curve, poor fit] |
| O=C(Nc1cccnc1)Nc1ccccc1Cl |  | inconclusive: 11.6 µM [activator, partial curve, poor fit] |
| c1cncc(CNc2ncnc3sc4c(c23)CCC4)c1 |  | inconclusive: 25.1 µM [inhibitor, single point] |
| Cc1cccnc1CCNCc1c(C(=O)N2C[C@@H](C)O[C@@H](C)C2)nc2ccc(Cl)cn12 |  | inconclusive: 0.199 µM [inhibitor, partial curve, poor fit] |

| SMILES | activity change, negative = inhibition | Potency |
| --- | --- | --- |
| COc1cccc(CN(C)CC(=O)Nc2c(C)cccc2C(C)C)c1 |  | inconclusive: 17.8 µM [inhibitor, single point] |
| COc1ccc(CCN(Cc2cccs2)S(=O)(=O)c2ccc(-n3cnnn3)cc2)cc1OC |  | inconclusive: 14.1 µM [inhibitor, partial curve] |
| CCC(C(=O)Nc1ccc2c(c1)OCCO2)c1ccccc1 (stereo not drawn) |  | inconclusive: 5.62 µM [activator, single point] |
| CCCCn1c(N)c(N(CCOC)C(=O)CSc2nnc(C)n2-c2ccc(OC)cc2)c(=O)[nH]c1=O |  | inconclusive: 0.1 µM [activator, full curve, poor fit] |
| CC(=O)NC(=S)Nc1ccc(NC(=O)c2cccnc2Cl)cc1 |  | inconclusive: 1 µM [activator, full curve, poor fit] |
| C=CCn1c(NCc2ccc(N(C)C)cc2)nc2ccccc21 | inactive: 15.3% [at 46.1 µM] |  |
| Cc1ccc(-c2nn(-c3ccccc3)cc2C(=O)N2CCOCC2)cc1C |  | inconclusive: 8.91 µM [inhibitor, single point] |
| Cc1cc(C)nc(-n2nc(C)cc2NC(=O)c2ccc(Br)o2)n1 | inactive: 4.69% |  |
| CCN(CC(=O)Nc1ccc2c(c1)OC(F)(F)O2)Cc1nc2ccccc2c(=O)[nH]1 |  | inconclusive: 35.5 µM [inhibitor, single point] |
| CC(Sc1ccccc1)C(=O)NN=C1CCN(C)CC1 (stereo not drawn) |  | inconclusive: 35.5 µM [activator, single point] |
| O=C(CSc1ncnc2c1cnn2-c1ccc(F)cc1)NC1CCCC1 |  | inconclusive: 0.251 µM [inhibitor, full curve, poor fit] |
| Cc1ccc(Cn2nnc3c(=O)[nH]c(C(=O)NCc4ccco4)nc32)cc1 | inactive: 15.9% |  |
| COc1ccc(N2CCN(C(=O)c3ccc4nc(N5CCC(C)CC5)sc4c3)CC2)cc1 | inactive: 6.87% [at 46.1 µM] |  |
| C/C(=N\NC(=O)COc1ccc(C)cc1C(C)C)c1ccc(-n2ccnc2)cc1 | inactive: -1.38% |  |
| COc1cccc(/C=N/NC(=O)c2[nH]nc3c2CCc2ccccc2-3)c1 |  | inconclusive: 3.98 µM [inhibitor, single point] |
| CCOC(=O)C1CCN(S(=O)(=O)c2ccc(OC)c(Cl)c2)CC1 |  | inconclusive: 6.31 µM [inhibitor, single point] |
| CC1=C(C(=O)OCc2ccccc2)C(/C=C/c2ccccc2)N2C(=O)CCSC2=N1 (stereo not drawn) |  | inconclusive: 35.5 µM [inhibitor, partial curve, poor fit] |
| CC1CC(C)CN(c2oc(-c3ccco3)nc2C#N)C1 (stereo not drawn) | inactive: 0.0623% |  |
| CCCCCn1c(Sc2ncccn2)nc2c1c(=O)[nH]c(=O)n2C | inactive: 9.94% |  |
| COC(=O)c1sc(NC(=O)CSc2nnnn2-c2ccc(C)cc2C)nc1C |  | inconclusive: 0.224 µM [inhibitor, full curve, poor fit] |
| COc1ccc(N2CCN(C(c3ccccc3OC)c3nnnn3Cc3ccco3)CC2)cc1 (stereo not drawn) |  | inconclusive: 10 µM [inhibitor, partial curve, poor fit] |
| CCC1(c2ccc(F)cc2)NC(=O)N(CC(=O)Nc2ccc(N3CCCCC3)cc2)C1=O (stereo not drawn) |  | inconclusive: 0.112 µM [activator, full curve, poor fit] |
| Cc1ccc(C(CNS(=O)(=O)c2ccc([N+](=O)[O-])cc2)N2CCN(C)CC2)cc1 (stereo not drawn) |  | inconclusive: 35.5 µM [inhibitor, single point] |

Ordered by molar mass (rising): some entries from above.

| SMILES | activity change, negative = inhibition | Potency |
| --- | --- | --- |
| C=CCn1c(NCc2ccc(N(C)C)cc2)nc2ccccc21 | inactive: 15.3% [at 46.1 µM] |  |
| COc1ccc(N2CCN(C(=O)c3ccc4nc(N5CCC(C)CC5)sc4c3)CC2)cc1 | inactive: 6.87% [at 46.1 µM] |  |
| COc1ccc(CCN(Cc2cccs2)S(=O)(=O)c2ccc(-n3cnnn3)cc2)cc1OC |  | inconclusive: 14.1 µM [inhibitor, partial curve] |

Remaining list, next part

| SMILES | activity change, negative = inhibition | Potency |
| --- | --- | --- |
| COC(=O)C1=C(C)NC(=S)NC1c1ccc(-c2cc(Cl)ccc2Cl)o1 (stereo not drawn) |  | inconclusive: 35.5 µM [inhibitor, single point] |
| CC(=O)c1ccc(OC(=O)CCc2nc3ccccc3s2)cc1 |  | inconclusive: 6.31 µM [activator, single point] |
| CCC(=O)Nc1c(S(=O)(=O)c2ccc(C)cc2)c2nc3ccccc3nc2n1C(C)c1ccccc1 (stereo not drawn) |  | inconclusive: 35.5 µM [inhibitor, single point] |
| COc1ccc(NC(=O)CCc2nc(-c3ccc(C)cc3)no2)c(OC)c1 | inactive: 0% |  |
| COc1cc2c(cc1OC)CN(C(=O)c1cccs1)CC2 | inactive: -0.969% |  |
| Cc1ccccc1-n1nnnc1SCc1csc(-c2ccccc2)n1 |  | inconclusive: 5.17 µM [inhibitor, full curve] |
| O=C(COc1ccc(Cl)cc1)N1CCN(c2ccc([N+](=O)[O-])c(N3CCCCC3)c2)CC1 |  | inconclusive: 29.1 µM [inhibitor, single point] |
| CCCCCC(=O)NNC1CC(=O)N(c2ccccc2)C1=O (stereo not drawn) |  | inconclusive: 35.5 µM [activator, single point] |
| CC(C)(C)C1(C)OC(=O)C(=Cc2ccc(OCC(=O)Nc3ccccc3)cc2)C(=O)O1 (stereo not drawn) |  | inconclusive: 2.51 µM [activator, partial curve, poor fit] |
| Cc1ccc(S(=O)(=O)N(C)c2ccc(OCC(=O)Nc3ccc(S(C)(=O)=O)cc3)cc2)cc1 | inactive: -0.358% |  |
| CCOC(=O)NC(=O)CSc1nc2ccccc2[nH]1 | inactive: -0.0304% [at 46.1 µM] |  |
| CCc1nc2ccccc2c(NC(=O)CN2CCC(C)CC2)c1C |  | inconclusive: 35.5 µM [inhibitor, single point] |
| COC(=O)c1cccc(NS(=O)(=O)c2ccc(OC)c(OC)c2)c1C |  | inconclusive: 23.1 µM [inhibitor, partial curve] |
| Cc1ccc(NC(=O)C2CCCN(S(=O)(=O)c3cccs3)C2)cc1 (stereo not drawn) |  | inconclusive: 2.24 µM [inhibitor, partial curve, poor fit] |
| COc1ccc(CCNc2oc(Cc3cccc4ccccc34)nc2C#N)cc1OC |  | inconclusive: 35.5 µM [inhibitor, single point] |
| CN(CCCC(=O)N1CCCC(C(N)=O)C1)S(=O)(=O)c1ccc(F)cc1 (stereo not drawn) | inactive: -15.6% [at 46.1 µM] |  |
| CC1CC1c1ccc(/C=C(\C#N)C(=O)Nc2ccc(Cl)cc2Cl)o1 (stereo not drawn) |  | inconclusive: 6.31 µM [activator, single point] |
| Cc1nc(N2CCN(c3ccccn3)CC2)c2c(C)c(C(=O)N3CCN(c4ccccc4F)CC3)sc2n1 |  | active: 7.94 µM |
| CCCCOCC1CN(Cc2ccccc2OC)S(=O)(=O)c2cc(Cl)ccc2O1 (stereo not drawn) |  | inconclusive: 4.45 µM [inhibitor, full curve, poor fit] |
| CN(C)c1ncnc2c1ncn2C1CCCO1 (stereo not drawn) | inactive: -5.07% [at 46.1 µM] |  |
| NC(=S)N/N=C/c1ccc(-c2ccc(SC(F)F)cc2)o1 |  | inconclusive: 4.47 µM [inhibitor, full curve, poor fit] |
| CC1CN(S(=O)(=O)c2ccc(C(=O)N(CCCN(C)C)c3nc4c(Cl)cccc4s3)cc2)CC(C)O1 (stereo not drawn) |  | inconclusive: 8.91 µM [inhibitor, partial curve] |

Reprinted at random: 3 compounds from above

| SMILES | activity change, negative = inhibition | Potency |
| --- | --- | --- |
| CC1CN(S(=O)(=O)c2ccc(C(=O)N(CCCN(C)C)c3nc4c(Cl)cccc4s3)cc2)CC(C)O1 (stereo not drawn) |  | inconclusive: 8.91 µM [inhibitor, partial curve] |
| CC(C)(C)C1(C)OC(=O)C(=Cc2ccc(OCC(=O)Nc3ccccc3)cc2)C(=O)O1 (stereo not drawn) |  | inconclusive: 2.51 µM [activator, partial curve, poor fit] |
| CCSc1nnc(NC(=O)c2cc(C)on2)s1 | inactive: 20.5% |  |
